The values below come from publication doi:10.1101/2021.04.20.440500.

The labels stand for the following.
B1: DJC11 (protein, UniProt Q9NVH1 1-559)
chain: MATALSEEELDNEDYYSLLNVRREASSEELKAAYRRLCMLYHPDKHRDPELKSQAERLFNLVHQAYEVLSDPQTRAIYDIYGKRGLEMEGWEVVERRRTPAEIREEFERLQREREERRLQQRTNPKGTISVGVDATDLFDRYDEEYEDVSGSSFPQIEINKMHISQSIEAPLTATDTAILSGSLSTQNGNGGGSINFALRRVTSAKGWGELEFGAGDLQGPLFGLKLFRNLTPRCFVTTNCALQFSSRGIRPGLTTVLARNLDKNTVGYLQWRWGIQSAMNTSIVRDTKTSHFTVALQLGIPHSFALISYQHKFQDDDQTRVKGSLKAGFFGTVVEYGAERKISRHSVLGAAVSVGVPQGVSLKVKLNRASQTYFFPIHLTDQLLPSAMFYATVGPLVVYFAMHRLIIKPYLRAQKEKELEKQRESAATDVLQKKQEAESAVRLMQESVRRIIEAEESRMGLIIVNAWYGKFVNDKSRKSEKVKVIDVTVPLQCLVKDSKLILTEASKAGLPGFYDPCVGEEKNLKVLYQFRGVLHQVMVLDSEALRIPKQSHRIDTDG
B2: TOM40 (protein, UniProt O96008 1-361)
chain: MGNVLAASSPPAGPPPPPAPALVGLPPPPPSPPGFTLPPLGGSLGAGTSTSRSSERTPGAATASASGAAEDGACGCLPNPGTFEECHRKCKELFPIQMEGVKLTVNKGLSNHFQVNHTVALSTIGESNYHFGVTYVGTKQLSPTEAFPVLVGDMDNSGSLNAQVIHQLGPGLRSKMAIQTQQSKFVNWQVDGEYRGSDFTAAVTLGNPDVLVGSGILVAHYLQSITPCLALGGELVYHRRPGEEGTVMSLAGKYTLNNWLATVTLGQAGMHATYYHKASDQLQVGVEFEASTRMQDTSVSFGYQLDLPKANLLFKGSVDSNWIVGATLEKKLPPLPLTLALGAFLNHRKNKFQCGFGLTIG
B3: SAM50 (protein, UniProt Q9Y512 1-469)
chain: MGTVHARSLEPLPSSGPDFGGLGEEAEFVEVEPEAKQEILENKDVVVQHVHFDGLGRTKDDIIICEIGDVFKAKNLIEVMRKSHEAREKLLRLGIFRQVDVLIDTCQGDDALPNGLDVTFEVTELRRLTGSYNTMVGNNEGSMVLGLKLPNLLGRAEKVTFQFSYGTKETSYGLSFFKPRPGNFERNFSVNLYKVTGQFPWSSLRETDRGMSAEYSFPIWKTSHTVKWEGVWRELGCLSRTASFAVRKESGHSLKSSLSHAMVIDSRNSSILPRRGALLKVNQELAGYTGGDVSFIKEDFELQLNKQLIFDSVFSASFWGGMLVPIGDKPSSIADRFYLGGPTSIRGFSMHSIGPQSEGDYLGGEAYWAGGLHLYTPLPFRPGQGGFGELFRTHFFLNAGNLCNLNYGEGPKAHIRKLAECIRWSYGAGIVLRLGNIARLELNYCVPMGVQTGDRICDGVQFGAGIRFL

No constants are given. Whether binding was seen depends on the method and setting. Binding seen in cells or lysates may run through a third protein. Here binding means that the protein was enriched with, or labelled near, the bait; the list need not be complete. Tags and fused reporters may be left off the sequences shown.

The assay addresses T1, TCAIM-eGFP fusion protein (UniProt Q66JZ4).
T1 sequence: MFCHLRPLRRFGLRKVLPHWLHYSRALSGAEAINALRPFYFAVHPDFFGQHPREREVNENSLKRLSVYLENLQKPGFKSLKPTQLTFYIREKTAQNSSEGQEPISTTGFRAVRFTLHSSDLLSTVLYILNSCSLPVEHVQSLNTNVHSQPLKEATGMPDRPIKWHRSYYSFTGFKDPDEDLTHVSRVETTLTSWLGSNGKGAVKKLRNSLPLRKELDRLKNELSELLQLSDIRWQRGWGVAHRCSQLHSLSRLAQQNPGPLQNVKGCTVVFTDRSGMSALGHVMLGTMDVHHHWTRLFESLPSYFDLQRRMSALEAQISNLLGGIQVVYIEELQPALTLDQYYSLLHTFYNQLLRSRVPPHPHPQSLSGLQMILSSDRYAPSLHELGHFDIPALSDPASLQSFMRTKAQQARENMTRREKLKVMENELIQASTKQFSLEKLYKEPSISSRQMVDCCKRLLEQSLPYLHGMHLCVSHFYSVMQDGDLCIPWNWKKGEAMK
The assay is described as follows: affinity purification with mass spectrometry.
For the molecule B1, the binding entry is recorded as “binds”.
For B2, the binding entry is reported as “binds”.
With B3, the binding result was “binds”.
